Experimental data from PubChem BioAssay AID1487 (National Center for Advancing Translational Sciences (NCATS), 2009).
The other results are listed elsewhere or left out. These are further read-outs of the screen, such as a control signal, another cell line or another target. No call is given for them. Compounds called inactive in the main read-out are mostly missing here. The note in brackets gives the kind of curve behind each potency; many fits are weak.

Assay: qHTS Assay for Modulators of Lamin A Splicing
Conditions: HeLa LMNA splicing GFP/RFP minigene ratio, 48 h
Outline: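 S3 HeLa stable clones carrying a lamin A-EGFP splicing minigene plus DsRed2 were seeded at 600 cells/well in Opti-MEM with 2% FBS, pin-dosed and incubated 48 h at 37°C. Acumen cytometry (488 nm) gave the GFP/RFP total-intensity ratio.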

[1] = measured here: RFP viability control channel
[2] = measured here: GFP splicing reporter channel

**Q.** For CCC(C)/C(C)=N/NC(=O)C1COc2ccccc2O1 (stereo unspecified), which AC50 [1] is on record?
**A.** 10 µM [rising, partial curve]

**Q.** Which AC50 [2] does the source give for S=c1[nH]nc(CCc2ccccc2)n1Cc1ccccc1 here?
**A.** 35.5 µM [falling, partial curve, poor fit]

**Q.** With COc1ccc(-c2nc(Cn3c(SCc4ccc(C)cc4)nc4cccnc43)c(C)o2)cc1OC as the compound, how does the AC50 [1] read?
**A.** 2 µM [rising, single point]

**Q.** Which AC50 [1] does the source give for N/C(=N\S(=O)(=O)c1cc(C(F)(F)F)cc(C(F)(F)F)c1)c1ccc(Cl)cc1 here?
**A.** 15.8 µM [falling, single point]

**Q.** For O=C(NCc1ccccc1)C1c2ccccc2Oc2ccccc21, which AC50 [2] is on record?
**A.** 0.282 µM [rising, partial curve, poor fit]

**Q.** Which AC50 [2] does the source give for CCOc1cc(C)c(S(=O)(=O)Nc2ccc(F)cc2)cc1C here?
**A.** 17.8 µM [rising, partial curve]

**Q.** And the AC50 [1]?
**A.** 17.8 µM [rising, single point]

**Q.** For COc1ccc(-c2nnc(SCC(=O)Nc3ccc(Cl)cc3)s2)cc1, which AC50 [1] is on record?
**A.** 0.708 µM [rising, single point]

**Q.** What does the source list for Cc1cc(-c2ccccc2)nc(Oc2cccc(C(F)(F)F)c2)c1S(C)(=O)=O?
**A.** AC50 [2]: 31.6 µM [rising, single point]; AC50 [1]: 35.5 µM [rising, single point]

**Q.** For O=C(CSc1nc(-c2ccccc2)cs1)NC(=O)NCc1ccco1, which AC50 [1] is on record?
**A.** 11.2 µM [rising, partial curve, poor fit]

**Q.** Which AC50 [1] does the source give for CN(C)S(=O)(=O)c1ccc2nnn(OCC(=O)NC34CC5CC(CC(C5)C3)C4)c2c1 here?
**A.** 11.2 µM [rising, partial curve, poor fit]

**Q.** For Cc1ccsc1/C=C1\SC(=S)N(CC2CCCO2)C1=O (stereo unspecified), which AC50 [2] is on record?
**A.** 0.562 µM [falling, full curve, poor fit]

**Q.** Which AC50 [2] does the source give for Cc1ccccc1-c1ccc2ncnc(NCc3cccs3)c2c1 here?
**A.** 12.6 µM [falling, partial curve]

**Q.** What about the AC50 [1] of the same compound?
**A.** 15.8 µM [falling, partial curve]

**Q.** With Cc1ccc(S(=O)(=O)N(C)C)cc1NC(=O)CN1C(=O)NC2(CCCc3ccccc32)C1=O (stereo unspecified) as the compound, how does the AC50 [1] read?
**A.** 35.5 µM [rising, single point]

**Q.** For CN(C)CCC[C@@]1(c2ccc(F)cc2)OCc2cc(C#N)ccc21, which AC50 [1] is on record?
**A.** 0.794 µM [falling, full curve, poor fit]

**Q.** With CCc1ccc(/C=C/C(=O)c2cc(Br)ccc(=O)c2O)cc1 as the compound, how does the AC50 [1] read?
**A.** 15.8 µM [rising, single point]

**Q.** Which AC50 [1] does the source give for Fc1ccc(F)c(NC(=S)NCCc2ccccc2)c1 here?
**A.** 15.8 µM [rising, partial curve]

**Q.** Which results are given for COc1ccc(C(c2nnnn2C(C)(C)C)N2CCN(c3nc4ccccc4s3)CC2)cc1 (stereo unspecified)?
**A.** AC50 [2]: 14.1 µM [rising, single point]; AC50 [1]: 14.1 µM [rising, single point]

**Q.** With Cc1ccc(C(=O)NCCNc2ccc([N+](=O)[O-])cc2C(F)(F)F)cc1 as the compound, how does the AC50 [1] read?
**A.** 28.2 µM [rising, single point]

**Q.** With CCOC(=O)NC(=O)CSc1nc(C)cc(C)c1C#N as the compound, how does the AC50 [1] read?
**A.** 12.6 µM [rising, single point]

**Q.** With OCCC1CN(Cc2ccon2)CCN1Cc1ccccc1 (stereo unspecified) as the compound, how does the AC50 [2] read?
**A.** 0.891 µM [falling, full curve, poor fit]

**Q.** With Nc1n[nH]c(N)c1N=Nc1ccc(Cl)cc1Cl as the compound, how does the AC50 [1] read?
**A.** 11.2 µM [rising, single point]

**Q.** With Cc1cc(C)cc(N(C(=O)CCC(=O)Nc2cc(C)on2)C(C(=O)NC2CCCC2)c2ccco2)c1 (stereo unspecified) as the compound, how does the AC50 [1] read?
**A.** 0.0141 µM [falling, full curve, poor fit]

**Q.** Which AC50 [1] does the source give for CCn1nc(C)c(/C=N/NC(=O)c2ccc3c(c2)c(C)c(C)n3Cc2ccccc2)c1C here?
**A.** 25.1 µM [rising, single point]

**Q.** With CCN(CC)S(=O)(=O)c1cc(C(=O)NC2CCCCC2)ccc1C as the compound, how does the AC50 [2] read?
**A.** 14.1 µM [rising, single point]

**Q.** With COc1ccc(C2(C(=O)Nc3ccc(S(N)(=O)=O)cc3)CCCC2)cc1 as the compound, how does the AC50 [1] read?
**A.** 35.5 µM [falling, single point]

**Q.** For Cc1ccc(S(=O)(=O)N2CCCC(CCC(=O)NCc3ccccc3F)C2)s1 (stereo unspecified), which AC50 [2] is on record?
**A.** 35.5 µM [falling, partial curve, poor fit]

**Q.** Which AC50 [1] does the source give for COc1ccccc1OCCC(=O)OCC(=O)NC(=O)NC(C)(C)C here?
**A.** 10 µM [rising, single point]

**Q.** Which AC50 [2] does the source give for Cc1ccc(CN(C(=O)COc2cccc([N+](=O)[O-])c2)c2ccccn2)cc1 here?
**A.** 3.55 µM [rising, partial curve, poor fit]

**Q.** For COCCn1c(C)cc(/C=C2/NC(=O)N(c3ccc(Cl)cc3)C2=O)c1C, which AC50 [2] is on record?
**A.** 5.01 µM [rising, single point]

**Q.** What does the source list for O=c1oc2ccccc2cc1-c1csc(Nc2nc3c(F)cccc3s2)n1?
**A.** AC50 [2]: 3.98 µM [rising, partial curve]; AC50 [1]: 3.98 µM [rising, partial curve]

**Q.** With CC(=O)C1=C(C)N(Cc2ccccc2)C(=O)N[C@H]1CCc1ccccc1 as the compound, how does the AC50 [2] read?
**A.** 11.2 µM [rising, partial curve]

**Q.** And the AC50 [1]?
**A.** 22.4 µM [rising, partial curve]

**Q.** For CCCN(Cc1ccccc1)C(=S)Nc1ccc(OCC)cc1, which AC50 [2] is on record?
**A.** 6.31 µM [rising, partial curve]

**Q.** What about the AC50 [1] of the same compound?
**A.** 0.0562 µM [rising, full curve, poor fit]

**Q.** Which AC50 [2] does the source give for O=C(NCc1nnc(SCC(=O)N2CCCc3ccccc32)o1)c1ccco1 here?
**A.** 0.0708 µM [rising, full curve, poor fit]

**Q.** With Cc1ccccc1C(=O)Nc1cccc(C(=O)OCc2cc(=O)n3c4c(sc3n2)CCCC4)c1 as the compound, how does the AC50 [1] read?
**A.** 2.82 µM [rising, full curve]

**Q.** Which AC50 [2] does the source give for COCCSc1nnc(NC(=O)Cc2ccc(OC)c(OC)c2)s1 here?
**A.** 0.0126 µM [rising, full curve, poor fit]

**Q.** What does the source list for O=C(Nc1ccc(Br)cc1)c1cccc(S(=O)(=O)Nc2cnc3ccccc3c2)c1?
**A.** AC50 [2]: 3.16 µM [rising, full curve, poor fit]; AC50 [1]: 10 µM [rising, partial curve]

**Q.** For CN1CCCC(n2nc(Cc3ccc(Cl)cc3)c3ccccc3c2=O)CC1 (stereo unspecified), which AC50 [2] is on record?
**A.** 0.01 µM [rising, full curve, poor fit]

**Q.** And the AC50 [1]?
**A.** 0.001 µM [rising, full curve, poor fit]
